From publication doi:10.1101/2023.08.04.552043
Results are given in words; binding and its absence hold for the method and conditions named. Binding seen in cells or lysates may run through a third protein. Some entries that bind do so weakly or less than the wild type. Sequences can lack the tags named with a protein.

Sequences of proteins named here, by UniProt entry; tags and fusion partners are left off.
UniProt Q6K7E6: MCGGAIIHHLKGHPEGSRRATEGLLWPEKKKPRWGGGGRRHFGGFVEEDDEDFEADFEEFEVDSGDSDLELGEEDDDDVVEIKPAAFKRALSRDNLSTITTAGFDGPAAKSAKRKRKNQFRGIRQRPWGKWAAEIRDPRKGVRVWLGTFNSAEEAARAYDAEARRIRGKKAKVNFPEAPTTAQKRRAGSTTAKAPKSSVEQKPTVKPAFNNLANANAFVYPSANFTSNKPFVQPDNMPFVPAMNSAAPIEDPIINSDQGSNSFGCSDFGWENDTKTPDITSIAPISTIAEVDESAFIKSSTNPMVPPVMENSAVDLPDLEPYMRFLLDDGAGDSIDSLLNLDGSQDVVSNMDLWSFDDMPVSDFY

Assays:
[1] = target: OsEREBP1-GFP-Myc (rice (Oryza sativa)) (UniProt Q6K7E6); assay: co-IP
[2] = target: OsEREBP1-cYFP (rice (Oryza sativa)) (UniProt Q6K7E6); assay: split reporter

B1: OsNAC2-GFP-HA (protein, UniProt Q7XUV6 1-343)
chain: MEQHQGQAGMDLPPGFRFHPTDEELITHYLAKKVADARFAALAVAEADLNKCEPWDLPSLAKMGEKEWYFFCLKDRKYPTGLRTNRATESGYWKATGKDKDIFRRKALVGMKKTLVFYTGRAPKGEKSGWVMHEYRLHGKLHAAALGFLHGKPASSKNEWVLCRVFKKSLVEVGAAGGKKAAVVTMEMARGGSTSSSVADEIAMSSVVLPPLMDMSGAGAGAVDPATTAHVTCFSNALEGQFFNPTAVHGHGGGDSSPFMASFTQYGQLHHGVSLVQLLESCNGYGGLVDMAASGSQLQPAACGGERERLSASQDTGLTSDVNPEISSSSGQKFDHEAALWGY
binding [1]: binds

B2: OsNAC2-nYFP (protein, UniProt Q7XUV6 1-343)
chain: B1 chain
binding [2]: binds
